For one substance, binding results are on record in paper PMC8294589.

Amino acid sequences for entries named in this document (tags omitted). A change or cut given only in a name is not applied to a line headed by its entry.
UniProt P16220: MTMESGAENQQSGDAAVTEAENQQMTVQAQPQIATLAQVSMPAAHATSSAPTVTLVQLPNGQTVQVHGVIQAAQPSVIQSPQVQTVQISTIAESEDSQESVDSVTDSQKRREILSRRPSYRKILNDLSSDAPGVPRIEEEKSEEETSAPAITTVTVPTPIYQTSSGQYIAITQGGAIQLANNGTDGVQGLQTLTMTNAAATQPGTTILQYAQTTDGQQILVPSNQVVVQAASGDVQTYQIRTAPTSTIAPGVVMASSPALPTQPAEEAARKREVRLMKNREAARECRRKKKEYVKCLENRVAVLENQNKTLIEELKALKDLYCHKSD
UniProt P63151: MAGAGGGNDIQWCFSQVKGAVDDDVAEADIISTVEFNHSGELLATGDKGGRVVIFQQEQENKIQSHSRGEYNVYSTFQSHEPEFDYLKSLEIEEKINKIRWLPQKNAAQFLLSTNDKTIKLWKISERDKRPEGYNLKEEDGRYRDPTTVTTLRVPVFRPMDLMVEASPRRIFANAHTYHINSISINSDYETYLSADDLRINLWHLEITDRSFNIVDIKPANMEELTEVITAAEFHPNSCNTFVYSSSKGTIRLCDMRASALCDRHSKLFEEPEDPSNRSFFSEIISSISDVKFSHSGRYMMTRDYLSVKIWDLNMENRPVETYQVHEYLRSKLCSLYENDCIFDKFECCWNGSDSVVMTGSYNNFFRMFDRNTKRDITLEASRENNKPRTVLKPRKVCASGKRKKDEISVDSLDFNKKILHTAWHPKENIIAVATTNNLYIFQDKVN

These are yes or no findings as the source states them, for the method shown.

This test deals with GST-CREB (99–159) (UniProt P16220). The test is described as follows: pull-down; 12 μg GST-CREB (or GST-ATF1) on 5 μl glutathione resin; 100 μg Bα or B56γ1 (holoenzyme in Fig. 2C) in 50 μl of 25 mM Tris pH 8.0, 150 mM NaCl, 2 mM DTT, 1 mg/ml BSA, 30 min; washes with 0.1% Triton X-100; SDS-PAGE, Coomassie blue; both purified.

With “B55α subunit of PP2A (from UniProt P63151 1-447)”, the binding entry is listed as “no binding (tested: 100 μg in 50 μl)”.
